This passage reports binding results from patent US20080201790A1, “Method and product for regulating cell responsiveness to external signals” (priority 1993, published 2008).

Experiment [1] addresses T1, MEKK1 (protein encoded by p-MEKK1, transiently expressed in COS cells) (mouse) (UniProt P53349).
T1 sequence: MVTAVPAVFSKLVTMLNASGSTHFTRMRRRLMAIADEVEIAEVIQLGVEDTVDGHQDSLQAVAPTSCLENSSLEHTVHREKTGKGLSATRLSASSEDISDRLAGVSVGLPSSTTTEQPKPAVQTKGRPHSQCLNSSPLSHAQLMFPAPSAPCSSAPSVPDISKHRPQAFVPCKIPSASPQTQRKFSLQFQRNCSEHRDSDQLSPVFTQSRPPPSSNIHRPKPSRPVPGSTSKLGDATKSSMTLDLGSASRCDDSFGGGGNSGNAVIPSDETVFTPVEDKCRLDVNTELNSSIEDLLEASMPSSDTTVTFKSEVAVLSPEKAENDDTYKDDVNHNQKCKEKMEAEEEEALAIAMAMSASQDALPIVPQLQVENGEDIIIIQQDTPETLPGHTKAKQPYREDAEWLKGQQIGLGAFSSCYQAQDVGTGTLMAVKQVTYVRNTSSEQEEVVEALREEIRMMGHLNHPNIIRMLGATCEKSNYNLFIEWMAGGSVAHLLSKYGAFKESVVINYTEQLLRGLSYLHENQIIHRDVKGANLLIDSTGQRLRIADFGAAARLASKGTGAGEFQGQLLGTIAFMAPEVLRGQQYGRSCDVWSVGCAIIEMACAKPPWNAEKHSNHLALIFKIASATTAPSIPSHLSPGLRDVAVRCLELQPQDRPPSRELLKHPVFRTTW
The experiment can be described thus: two-hybrid system.

In experiment [2] the target is T1, MEKK1 (protein encoded by p-MEKK1, transiently expressed in COS cells) (mouse). Description: GST fusion protein interaction with COS cell-expressed MEKK1.

These are yes or no findings as the source states them, for the method shown. Some entries that bind do so weakly or less than the wild type. For some assays here: Tags and fused reporters may be left off the sequences shown.

B1: T cell 14-3-3 isoform (two-hybrid system) (protein, UniProt P27348 1-245, looked up)
chain: MEKTELIQKAKLAEQAERYDDMATCMKAVTEQGAELSNEERNLLSVAYKNVVGGRRSAWRVISSIEQKTDTSDKKLQLIKDYREKVESELRSICTTVLELLDKYLIANATNPESKVFYLKMKGDYFRYLAEVACGDDRKQTIDNSQGAYQEAFDISKKEMQPTHPIRLGLALNFSVFYYEILNNPELACTLAKTAFDEAIAELDTLNEDSYKDSTLIMQLLRDNLTLWTSDSAGEECDAAEGAEN
B1: in experiment [1], the binding result is listed as “binds”.

B2: GST fusion protein of the T cell 14-3-3 isoform (protein, UniProt P27348 1-245, looked up, not shown: a dimerising Fc or GST)
chain: B1 chain
With B2, the binding entry in experiment [2] is on record as “binds”.
